Test results: patent US8178512B2, “Methods and compositions for treating diseases and disorders associated with siglec-8” (Johns Hopkins University, priority 2004, dated 2012)
At least one structure is not confirmed: it was looked up by name or label, or the drawing left a doubt.

The chains behind the UniProt entries cited, without tags or fusion partners. Residues count along the entry.
UniProt Q9NYZ4, 17-363 limits assumed: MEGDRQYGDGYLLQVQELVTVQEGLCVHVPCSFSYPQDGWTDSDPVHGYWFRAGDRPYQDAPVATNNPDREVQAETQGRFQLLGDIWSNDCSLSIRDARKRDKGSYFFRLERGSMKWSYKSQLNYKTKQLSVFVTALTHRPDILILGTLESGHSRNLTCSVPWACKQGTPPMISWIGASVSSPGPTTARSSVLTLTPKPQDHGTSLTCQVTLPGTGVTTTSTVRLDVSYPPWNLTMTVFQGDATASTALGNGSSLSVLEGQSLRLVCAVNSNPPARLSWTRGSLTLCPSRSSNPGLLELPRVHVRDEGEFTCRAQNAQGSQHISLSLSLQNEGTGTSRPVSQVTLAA

Target: T1, Siglec-8-Ig fusion protein (Homo sapiens, UniProt Q9NYZ4)
T1 construct: The extracellular domain of Siglec-8 was inserted in frame with a Factor Xa cleavage site and the Fc portion of human IgG1; made in house; host or cells: CHOEA1 cells (electroporated), purified from supernatants on Protein A Sepharose
Test: Glycan array screening: Siglec-8-Ig binding to biotinylated glycosides on streptavidin-coated 384-well plates
Conditions: 30 pmol/well glycoside, Siglec-8-Ig 30 ug/ml
Experimental: The extracellular domain of Siglec-8 was inserted in frame with a Factor Xa cleavage site and the Fc portion of human IgG1, expanded in electroporated CHOEA1 cells, and then purified from supernatants (final concentration: 2.4 mg/ml) using Protein A Sepharose as previously described (Kikly, K. K., Bochner, B. S., Freeman, S., Tan, K. B., Gallagher, K. T., D'Alessio, K., Holmes, S. D., Abrahamson, J., Hopson, C. B., Fischer, E. I., Erickson-Miller, C. L., Tachimoto, H., Schleimer, R. P., and White, J. R. (2000) J. Allergy Clin. Immunol. 105, 1093-1100).
Biotinylated glycosides (Korchagina, E., and Bovina, N. V. (1992) Bioorg Khim 18, 283-298) were coated in replicates of n=3 or n=4 on streptavidin-coated microtiter plates (Pierce Reacti-Bind™ NeutrAvidin™ Coated High Binding Capacity Black 384-Well Plates, Product #15513, Rockford, Ill.). Each well was incubated overnight at 4° C. with 30 pmol/well of glycoside in 25 ul phosphate buffered saline (PBS), pH 7.4. The plates were washed three times with 100 ul PBS using an automated plate washer (Molecular Devices, Sunnyvale, Calif.) and stored sealed at 4° C. in 25 ul/well PBS with 0.1% azide until use. Prior to assay, the plates were washed three times with 100 ul/well wash buffer (20 mM Tris-HCl pH 7.4, 150 mM NaCl, 2 mM CaCl2, 2 mM MgCl2 and 0.05% Tween 20). A stock solution of Siglec-8-Ig (30 ug/ml) was added to each well in 25 ul binding buffer (wash buffer plus 1% BSA) and incubated at room temperature for one hour. The plates were washed three times with 100 ul/well wash buffer and incubated for one hour with 25 ul/well goat anti-human IgG-Alexa 488 (Molecular Probes, Cat. No. A11013, Eugene, Oreg.) at 5 ug/ml in binding buffer. The plates were washed and read in 25 ul wash buffer on a Victor 2™ 1420 Multilabel Counter (PerkinElmer Life Sciences, Fremont, Calif.) at excitation 485/emission 535. The current version of the Consortium glycan array can be viewed at: […]

With `CC(=O)N[C@H]1[C@H](OCCCNC(=O)CCCCCNC(=O)CCCC[C@@H]2SC[C@@H]3NC(=O)N[C@@H]32)O[C@H](COS(=O)(=O)O)[C@@H](O[C@@H]2O[C@H](CO)[C@H](O)[C@H](O[C@]3(C(=O)O)C[C@H](O)[C@@H](NC(C)=O)[C@H]([C@H](O)[C@H](O)CO)O3)[C@H]2O)[C@@H]1O[C@@H]1O[C@@H](C)[C@@H](O)[C@@H](O)[C@@H]1O` [#182, NeuAcα2-3Galβ1-4(Fucα1-3)(6-O-Su)GlcNAcβ1-O(CH2)3NH—CO(CH2)5NH-Biotin] as the compound, how does the signal-to-noise binding read?
Its signal-to-noise binding is 1.2:1.

`CC(=O)N[C@H]1[C@H](OCCCNC(=O)CCCCCNC(=O)CCCC[C@@H]2SC[C@@H]3NC(=O)N[C@@H]32)O[C@H](CO)[C@@H](O[C@@H]2O[C@H](COS(=O)(=O)O)[C@H](O)[C@H](O[C@]3(C(=O)O)C[C@H](O)[C@@H](NC(C)=O)[C@H]([C@H](O)[C@H](O)CO)O3)[C@H]2O)[C@@H]1O[C@@H]1O[C@@H](C)[C@@H](O)[C@@H](O)[C@@H]1O` [#181, NeuAcα2-3(6-O-sulfo)Galβ1-4(Fucα1-3)GlcNAcβ1-O(CH2)3NH—CO(CH2)5NH-Biotin] was tested. Which signal-to-noise binding did it give?
The signal-to-noise binding was 12:1.

How did the signal-to-noise binding turn out when `CC(=O)N[C@H]1[C@H](OCCNC(=O)CCCCCNC(=O)CCCCCNC(=O)CCCC[C@@H]2SC[C@@H]3NC(=O)N[C@@H]32)O[C@H](CO)[C@@H](O[C@@H]2O[C@H](CO)[C@H](O)[C@H](O[C@]3(C(=O)O)C[C@H](O)[C@@H](NC(C)=O)[C@H]([C@H](O)[C@H](O)CO)O3)[C@H]2O)[C@@H]1O[C@@H]1O[C@@H](C)[C@@H](O)[C@@H](O)[C@@H]1O` [#108, NeuAcα2-3Galβ1-4(Fucα1-3)GlcNAcβ1-O(CH2)2NHCO(CH2)5NHCO(CH2)5NH-Biotin] was run?
The signal-to-noise binding was 0.8:1.
